The list shows only some results of the screen, not a fair sample: it gathers tests that were run many times, whatever their T/C, doses with no T/C, and many T/C values between a quarter and a half above the control. Further doses and runs are listed elsewhere. T/C: endpoint of the treated group in % of that of the vehicle group. Some doses have a count of surviving animals in place of a T/C: the source holds a T/C of zero for them, seemingly a mark for toxic or unscored doses. Some survivor counts are full or nearly so, which does not show that the dose was tolerated: the source hardly ever lists a survival T/C far under the control, and the zero likely stands for such cases as well. Survivors were counted at the toxicity check, usually on the fifth day, unless a day is given; later deaths do not show. Schedule codes are those of the source, read here as Q, the interval in days (D) or hours (H), X, the number of doses. Some doses were run more than once; their values stand side by side, smallest first. Where survival is the endpoint, this PubChem deposit counts one and a half times the control or more as active, and values a quarter to a half above the control carry no call in these data; other NCI protocols may use other cut-offs. Some T/C values carry the count of animals alive at the toxicity check (mostly the fifth day); where none is given, no animal had died by that day.

The subject of this experiment is Lewis lung carcinoma i.m., BDF1 mice, T/C %. Kind of experiment: NCI In Vivo Anticancer Drug Screen. Data for tumor model Lewis Lung Carcinoma (intramuscular) in B6D2F1 (BDF1) mice. The gist of the method: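 Mice carrying transplantable tumours received test compound. Survival or tumour size was recorded and expressed as the treated-group value (T) divided by the vehicle-treated control-group value (C).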

The mark [1] stands for this setting: T/C endpoint: median survival time, dose: 50.0 mg/kg/injection, schedule: Q01DX011 (ip), vehicle: saline, higher T/C = longer survival.
Setting [2] is: T/C endpoint: mean tumor weight, dose: 50.0 mg/kg/injection, schedule: Q01DX011 (ip), vehicle: saline, higher T/C = larger tumour.
[3] abbreviates: T/C endpoint: median survival time, dose: 100.0 mg/kg/injection, schedule: Q01DX011 (ip), vehicle: saline, higher T/C = longer survival.
The mark [4] stands for this setting: T/C endpoint: median survival time, dose: 200.0 mg/kg/injection, schedule: Q01DX011 (ip), vehicle: saline, higher T/C = longer survival.
Setting [5] is: T/C endpoint: median survival time, dose: 400.0 mg/kg/injection, schedule: Q01DX011 (ip), vehicle: saline, higher T/C = longer survival.
[6] abbreviates: T/C endpoint: median survival time, dose: 1.0 mg/kg/injection, schedule: Q01DX011 (ip), vehicle: saline, higher T/C = longer survival.

For `CN(C)c1nc(N(C)C)nc(N(C)C)n1`, the survivor count is 3 of 8 (T/C endpoint: mean tumor weight (est.), dose: 200.0 mg/kg/injection, schedule: Q01DX011 (ip), vehicle: saline with Tween-80, higher T/C = larger tumour); 5 of 8 (T/C endpoint: mean tumor weight, dose: 250.0 mg/kg/injection, schedule: Q01DX011 (ip), vehicle: steroid suspending solution, higher T/C = larger tumour); 5 of 8 (T/C endpoint: median survival time, dose: 250.0 mg/kg/injection, schedule: Q01DX011 (ip), vehicle: steroid suspending solution, higher T/C = longer survival).
As to `CC(=O)O[C@]1(C(C)=O)CC[C@H]2[C@@H]3C[C@H](C)C4=CC(=O)CC[C@]4(C)[C@H]3CC[C@@]21C`, the survivor count (T/C endpoint: median survival time, dose: 800.0 mg/kg/injection, schedule: Q01DX011 (ip), vehicle: Klucel (hydroxypropylcellulose) (HPC), higher T/C = longer survival) is 8 of 10 and 9 of 10.
With `CN(C)C(=O)c1cccc(COc2ccc(N3C(N)=NC(N)=NC3(C)C)cc2Cl)c1`, the survivor count runs as follows: (T/C endpoint: mean tumor weight, dose: 6.25 mg/kg/injection, schedule: Q01DX011 (ip), vehicle: saline, higher T/C = larger tumour) 4 of 8; (T/C endpoint: median survival time, dose: 6.25 mg/kg/injection, schedule: Q01DX011 (ip), vehicle: saline, higher T/C = longer survival) 4 of 8; (T/C endpoint: median survival time, dose: 25.0 mg/kg/injection, schedule: Q01DX011 (ip), vehicle: saline, higher T/C = longer survival) 0 of 8.
Turning to `CCCSc1ncnc2nc[nH]c12`, the survivor count reads like this: (T/C endpoint: mean tumor weight, dose: 50.0 mg/kg/injection, schedule: Q01DX011 (ip), vehicle: other, higher T/C = larger tumour) 4 of 8; (T/C endpoint: median survival time, dose: 50.0 mg/kg/injection, schedule: Q01DX011 (ip), vehicle: other, higher T/C = longer survival) 4 of 8; (T/C endpoint: median survival time, dose: 100.0 mg/kg/injection, schedule: Q01DX011 (ip), vehicle: other, higher T/C = longer survival) 0 of 8; (T/C endpoint: median survival time, dose: 200.0 mg/kg/injection, schedule: Q01DX011 (ip), vehicle: other, higher T/C = longer survival) 0 of 8; (T/C endpoint: median survival time, dose: 400.0 mg/kg/injection, schedule: Q01DX011 (ip), vehicle: other, higher T/C = longer survival) 0 of 8.
As for `COc1ccc2nc3cc(Cl)ccc3c(NCCO)c2c1`, the survivor count was 2 of 8 (T/C endpoint: mean tumor weight (est.), dose: 137.5 mg/kg/injection, schedule: Q01DX011 (ip), vehicle: saline with Tween-80, higher T/C = larger tumour); 2 of 8 (T/C endpoint: median survival time, dose: 137.5 mg/kg/injection, schedule: Q01DX011 (ip), vehicle: saline with Tween-80, higher T/C = longer survival); 0 of 8 (T/C endpoint: median survival time, dose: 275.0 mg/kg/injection, schedule: Q01DX011 (ip), vehicle: saline with Tween-80, higher T/C = longer survival).
For `O=c1n(CC2CO2)c(=O)n(CC2CO2)c(=O)n1CC1CO1` (centres undefined), the survivor count under setting [1] is given as 10 of 10.
For the molecule `CC(C)n1c2c([n+](C)c1/C=C/c1ccccc1)C(=O)c1ccccc1C2=O`, the survivor count is, setting by setting: (T/C endpoint: median survival time, dose: 1.0 mg/kg/injection, schedule: Q01DX011 (ip), vehicle: saline with Tween-80, higher T/C = longer survival) 6 of 8; (T/C endpoint: median survival time, dose: 2.0 mg/kg/injection, schedule: Q01DX011 (ip), vehicle: saline with Tween-80, higher T/C = longer survival) 0 of 8; (T/C endpoint: median survival time, dose: 4.0 mg/kg/injection, schedule: Q01DX011 (ip), vehicle: saline with Tween-80, higher T/C = longer survival) 0 of 8.
Turning to `O=[N+]([O-])O.[Ga]`, the survivor count is given as 1 of 8 under setting [2]; 1 of 8 under setting [1]; 0 of 8 under setting [3]; 0 of 8 under setting [4]; 0 of 8 under setting [5].
Regarding `CCCCCCCCCCCCn1c(C)nc2ccccc21`, the survivor count runs as follows: (T/C endpoint: median survival time, dose: 2.5 mg/kg/injection, schedule: Q01DX011 (ip), vehicle: saline, higher T/C = longer survival) 0 of 8; (T/C endpoint: median survival time, dose: 5.0 mg/kg/injection, schedule: Q01DX011 (ip), vehicle: saline, higher T/C = longer survival) 0 of 8.
Consider `C=CCN1/C(=C/C=C\c2sc3ccccc3[n+]2CC=C)Sc2ccccc21`, for which the survivor count under setting [6] is given as 8 of 8.
As for `COC(=O)C[C@](O)(CCC(C)(C)O)C(=O)O[C@@H]1C(OC)=C[C@]23CCCN2CCc2cc4c(cc2[C@H]13)OCO4`, the survivor count is reported as 3 of 8 (T/C endpoint: mean tumor weight, dose: 1.0 mg/kg/injection, schedule: Q01DX011 (ip), vehicle: saline, higher T/C = larger tumour); 5 of 8 (T/C endpoint: mean tumor weight, dose: 2.0 mg/kg/injection, schedule: Q01DX011 (ip), vehicle: water, higher T/C = larger tumour); 3 of 8 under setting [6]; 0 of 8 (T/C endpoint: median survival time, dose: 2.0 mg/kg/injection, schedule: Q01DX011 (ip), vehicle: saline, higher T/C = longer survival).
With `CC1(C)N=C(N)N=C(N)N1c1ccc(CCCCc2ccc(Cl)cc2Cl)cc1`, the survivor count is reported as 3 of 8 (T/C endpoint: mean tumor weight, dose: 20.0 mg/kg/injection, schedule: Q01DX011 (ip), vehicle: saline, higher T/C = larger tumour) and 3 of 8 (T/C endpoint: median survival time, dose: 20.0 mg/kg/injection, schedule: Q01DX011 (ip), vehicle: saline, higher T/C = longer survival).
Consider `Cn1cnc([N+](=O)[O-])c1Sc1ncnc2c1ncn2C1OC(CO)C(O)C1O` (centres undefined), for which the survivor count by setting is: under setting [2], 5 of 8; (T/C endpoint: mean tumor weight, dose: 100.0 mg/kg/injection, schedule: Q01DX011 (ip), vehicle: saline, higher T/C = larger tumour) 5 of 8; (T/C endpoint: mean tumor weight, dose: 200.0 mg/kg/injection, schedule: Q01DX011 (ip), vehicle: saline, higher T/C = larger tumour) 2 of 8; under setting [1], 5 of 8; under setting [3], 5 of 8; under setting [4], 2 of 8. The survivor count under setting [5] is 1 of 8.
On to `N=c1ccn2c(n1)OC1C(O)C(CO)OC12` (centres undefined), for which the survivor count (T/C endpoint: mean tumor weight, dose: 800.0 mg/kg/injection, schedule: Q01DX011 (ip), vehicle: water, higher T/C = larger tumour) is listed as 5 of 8 and the survivor count (T/C endpoint: median survival time, dose: 800.0 mg/kg/injection, schedule: Q01DX011 (ip), vehicle: water, higher T/C = longer survival) is recorded as 5 of 8.
As for `Nc1nc(=S)c2[nH]cnc2[nH]1`, the survivor count (T/C endpoint: mean tumor weight, dose: 2.0 mg/kg/injection, schedule: Q01DX011 (ip), vehicle: other, higher T/C = larger tumour) is reported as 1 of 8; the survivor count (T/C endpoint: median survival time, dose: 1.0 mg/kg/injection, schedule: Q01DX011 (ip), vehicle: other, higher T/C = longer survival) was 0 of 8 and 8 of 8; the survivor count (T/C endpoint: median survival time, dose: 1.5 mg/kg/injection, schedule: Q01DX011 (ip), vehicle: other, higher T/C = longer survival) is 0 of 10 and 8 of 10; the survivor count (T/C endpoint: median survival time, dose: 2.0 mg/kg/injection, schedule: Q01DX011 (ip), vehicle: other, higher T/C = longer survival) is given as 1 of 8; the survivor count (T/C endpoint: median survival time, dose: 3.0 mg/kg/injection, schedule: Q01DX011 (ip), vehicle: other, higher T/C = longer survival) is given as 0 of 10; the survivor count (T/C endpoint: median survival time, dose: 6.0 mg/kg/injection, schedule: Q01DX011 (ip), vehicle: other, higher T/C = longer survival) is 0 of 10 and 6 of 10. In addition, the survivor count (T/C endpoint: median survival time, dose: 12.0 mg/kg/injection, schedule: Q01DX011 (ip), vehicle: other, higher T/C = longer survival) was 0 of 10 and 3 of 10. In addition, the T/C (T/C endpoint: median survival time, dose: 0.5 mg/kg/injection, schedule: Q01DX011 (ip), vehicle: other, higher T/C = longer survival) was 126 % of control [6 of 8 alive].
On to `Cc1cc(/C=C/c2cc[n+](C)c3ccccc23)c(O)c2ncccc12`, for which the survivor count is reported as 5 of 8 (T/C endpoint: mean tumor weight, dose: 3.0 mg/kg/injection, schedule: Q01DX011 (ip), vehicle: saline, higher T/C = larger tumour); 3 of 8 (T/C endpoint: mean tumor weight, dose: 12.0 mg/kg/injection, schedule: Q01DX011 (ip), vehicle: saline, higher T/C = larger tumour); 3 of 8 (T/C endpoint: mean tumor weight, dose: 24.0 mg/kg/injection, schedule: Q01DX011 (ip), vehicle: saline, higher T/C = larger tumour); 5 of 8 (T/C endpoint: median survival time, dose: 3.0 mg/kg/injection, schedule: Q01DX011 (ip), vehicle: saline, higher T/C = longer survival); 3 of 8 (T/C endpoint: median survival time, dose: 12.0 mg/kg/injection, schedule: Q01DX011 (ip), vehicle: saline, higher T/C = longer survival); 3 of 8 (T/C endpoint: median survival time, dose: 24.0 mg/kg/injection, schedule: Q01DX011 (ip), vehicle: saline, higher T/C = longer survival). Also, the survivor count (T/C endpoint: median survival time, dose: 48.0 mg/kg/injection, schedule: Q01DX011 (ip), vehicle: saline, higher T/C = longer survival) is 0 of 8.
For `Cc1c(C(=O)O)nc(/C=C/C(=O)O)[nH]c1=O`, the survivor count (T/C endpoint: median survival time, dose: 32.0 mg/kg/injection, schedule: Q01DX009 (ip), vehicle: water, higher T/C = longer survival) was 10 of 10.
Take `CC1OC(O[C@@H]2C=C3CC[C@@H]4[C@H](CC[C@]5(C)[C@@H](c6ccc(=O)oc6)CC[C@]45O)[C@@]3(C)CC2)C(O)C(O)C1O` (some centres undefined): the T/C (T/C endpoint: median survival time, dose: 0.62 mg/kg/injection, schedule: Q01DX011 (ip), vehicle: steroid suspending solution, higher T/C = longer survival) was 141 % of control [6 of 8 alive].

These data come from PubChem BioAssay AID272 (DTP/NCI, 2004).
